The values below come from doi:10.1101/2023.07.17.549407 (bioRxiv, 2023).

Chains of the proteins cited; added tags and fusions are not shown.
UniProt Q8NFB2: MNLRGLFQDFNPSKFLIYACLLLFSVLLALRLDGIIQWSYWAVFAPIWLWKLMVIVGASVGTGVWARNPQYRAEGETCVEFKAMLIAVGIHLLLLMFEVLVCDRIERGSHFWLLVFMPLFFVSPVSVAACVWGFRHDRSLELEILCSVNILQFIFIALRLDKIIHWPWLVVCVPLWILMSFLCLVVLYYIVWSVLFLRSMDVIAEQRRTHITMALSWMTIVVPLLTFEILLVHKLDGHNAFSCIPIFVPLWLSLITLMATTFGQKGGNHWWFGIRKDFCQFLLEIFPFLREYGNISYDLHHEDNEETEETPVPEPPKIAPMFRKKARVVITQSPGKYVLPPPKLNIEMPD
UniProt Q9H7F4: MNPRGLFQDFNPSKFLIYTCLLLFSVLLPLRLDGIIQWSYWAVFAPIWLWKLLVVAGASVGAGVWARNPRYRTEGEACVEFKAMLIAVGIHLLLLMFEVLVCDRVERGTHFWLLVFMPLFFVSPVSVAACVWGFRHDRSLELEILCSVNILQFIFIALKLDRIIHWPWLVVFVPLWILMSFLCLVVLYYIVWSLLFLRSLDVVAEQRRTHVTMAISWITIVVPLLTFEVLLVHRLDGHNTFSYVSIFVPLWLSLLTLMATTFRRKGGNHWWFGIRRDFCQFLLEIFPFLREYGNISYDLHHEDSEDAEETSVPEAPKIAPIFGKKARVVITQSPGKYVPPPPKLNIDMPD
UniProt Q9UNE7: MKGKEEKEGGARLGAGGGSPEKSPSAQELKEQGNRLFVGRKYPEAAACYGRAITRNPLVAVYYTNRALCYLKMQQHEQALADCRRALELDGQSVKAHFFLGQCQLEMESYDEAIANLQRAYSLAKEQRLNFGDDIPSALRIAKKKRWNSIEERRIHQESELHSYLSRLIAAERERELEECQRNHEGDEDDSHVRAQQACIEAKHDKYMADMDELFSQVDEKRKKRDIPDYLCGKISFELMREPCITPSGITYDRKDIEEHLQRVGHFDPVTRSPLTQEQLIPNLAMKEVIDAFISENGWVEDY

Numbering of substitutions follows the chain as printed. Results are given in words; binding and its absence hold for the method and conditions named. For part of these data: In cells and extracts the contact can be indirect. Some binding calls cover weakened binding; strength is not graded here. For part of these data: Tags and fused reporters may be left off the sequences shown.

Experiment [1] addresses T1, CHIC2 chimera with the Hsp70 C-terminus (CHIC2-IEEVD) (human) (UniProt Q9UKJ5).
T1 sequence: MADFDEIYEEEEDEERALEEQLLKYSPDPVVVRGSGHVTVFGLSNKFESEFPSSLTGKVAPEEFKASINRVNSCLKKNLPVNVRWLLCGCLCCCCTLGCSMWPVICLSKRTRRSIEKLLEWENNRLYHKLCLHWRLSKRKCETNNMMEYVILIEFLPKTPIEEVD
The experiment can be described thus: co-IP.

Experiment [2] addresses T2, Hsp70 photo-crosslinking probe (diazirine-Lys(biotin)-IEEVD).
T2 sequence (peptide, alkyl diazirine on the N-terminus; biotin on the side chain of the spacer lysine): KIEEVD
Briefly: cross-linking.

For experiment [3], the target named is T3, Hsp90 photo-crosslinking probe (diazirine-Lys(biotin)-MEEVD).
T3 sequence (peptide, alkyl diazirine on the N-terminus; biotin on the side chain of the spacer lysine): KMEEVD
The experiment can be described thus: cross-linking.

Experiment [4] deals with T4, CHIC2 chimera with the CHIPOpt C-terminus (CHIC2-LWWPD) (human) (UniProt Q9UKJ5).
T4 sequence: T1 sequence with I161L, E162W, E163W, V164P
Briefly: co-IP.

Experiment [5] concerns the target T5, CHIC2 chimera with the IWWPD C-terminus (CHIC2-IWWPD) (human) (UniProt Q9UKJ5).
T5 sequence: T1 sequence with E162W, E163W, V164P
Briefly: co-IP.

The target in experiment [6] is TMEM185A (UniProt Q8NFB2). Briefly: co-IP.
Experiment [7] has as its target T6, myc-CHIC1 (UniProt Q5VXU3).
T6 sequence: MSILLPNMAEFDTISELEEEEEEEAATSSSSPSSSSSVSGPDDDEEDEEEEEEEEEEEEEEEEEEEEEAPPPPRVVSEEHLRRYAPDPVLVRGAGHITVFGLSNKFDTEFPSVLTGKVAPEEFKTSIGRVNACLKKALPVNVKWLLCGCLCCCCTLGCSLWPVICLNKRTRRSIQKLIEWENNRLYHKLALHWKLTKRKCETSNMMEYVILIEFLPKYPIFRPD
The experiment can be described thus: co-IP.

Experiment [8] deals with myc-tagged CHIC2 (human) (UniProt Q9UKJ5). The experiment can be described thus: co-IP.
The target in experiment [9] is T7, myc-tagged CHIC2 D165A (human) (UniProt Q9UKJ5).
T7 sequence: T1 sequence with E162F, E163R, V164P, D165A
The experiment can be described thus: co-IP.

Experiment [10] deals with T8, labeled CHIC2 peptide (FAM-Ahx-IFRPD) (human).
T8 sequence (peptide, N-terminal hexanoic acid linker (Ahx) and FAM fluorophore): IFRPD
The experiment can be described thus: fluorescence polarisation. A general note: Polarisation of emitted light reports the rotation of a fluorescent probe.

The target in experiment [11] is TMEM185B (UniProt Q9H7F4). Briefly: co-IP.
For experiment [12], the target named is endogenous CHIP (HEK293T) (human (endogenous in HEK293T)) (UniProt Q9UNE7). The experiment can be described thus: cross-linking.

Regarding “endogenous HOP (HEK293T) (from UniProt P31948 1-543)”, the binding result in experiment [1] is “no binding”.

For the molecule “endogenous CHIP (HEK293T) (from UniProt Q9UNE7 1-303) (enzyme)”, the binding entry in [2], in experiment [3], in [4], in [1], in [5] and in experiment [6] was “binds” throughout. The binding result in experiment [7] is on record as “binds”; in experiment [8] it was “binds”; in experiment [9], “no binding”.

For “HOP, recombinant (from UniProt P31948 1-543)”, the binding result in experiment [10] is “no binding”.

As to “myc-tagged CHIC2 (from UniProt Q9UKJ5 1-165)”, the binding result in experiment [6] and in experiment [11] was “no binding” each time.

Turning to LWWPD (N-terminal acetyl) [CHIPOpt (Ac-LWWPD)], in experiment [12], the binding entry was “binds”.

With IFRPD (N-terminal acetyl) [CHIC2 C-terminal 5-mer peptide Ac-IFRPD], the binding result in experiment [12] is “binds”.
